# Test results: the supplement of paper PMC8728848
# This is one part of the list.
# How the values were obtained:
# Assay in all cases: glycan array binding signal (z-score within array); higher = stronger binding
# Conditions in all cases: glycan notation: IUPAC condensed, linker removed
# [1] = molecular target: Gal(b1-3)GalNAc(b1-3)Gal(a1-4)Gal(b1-4)Glc
# Outline: (§1)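 The binding signal is a Z-score computed within each array. Data were drawn from 3228 arrays in the Consortium for Functional Glycomics database, restricted to those with a known protein sequence. Scores were averaged over arrays of the same protein sequence at different concentrations or buffers, and over linkers, and negative values can be taken as non-binding.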
# [2] = molecular target: Gal(b1-3)GalNAc(b1-4)Gal(b1-4)Glc
# Outline: as §1
# [3] = molecular target: Gal(b1-3)GalNAc(b1-4)[Neu5Ac(a2-3)]Gal(b1-4)Glc
# Outline: as §1
# [4] = molecular target: Gal(b1-3)GlcNAc
# Outline: as §1
# [5] = molecular target: Gal(b1-3)GlcNAc(a1-3)Gal(b1-4)GlcNAc
# Outline: as §1
# [6] = molecular target: Gal(b1-3)GlcNAc(a1-6)Gal(b1-4)GlcNAc
# Outline: as §1
# [7] = molecular target: Gal(b1-3)GlcNAc(b1-2)Man
# Outline: as §1
# [8] = molecular target: Gal(b1-3)GlcNAc(b1-2)Man(a1-3)[Gal(b1-3)GlcNAc(b1-2)Man(a1-6)]Man(b1-4)GlcNAc(b1-4)GlcNAc
# Outline: as §1
# [9] = molecular target: Gal(b1-3)GlcNAc(b1-2)Man(a1-3)[Gal(b1-3)GlcNAc(b1-2)Man(a1-6)]Man(b1-4)GlcNAc(b1-4)[Fuc(a1-6)]GlcNAc
# Outline: as §1
# [10] = molecular target: Gal(b1-3)GlcNAc(b1-2)Man(a1-3)[GlcNAc(b1-4)][Gal(b1-3)GlcNAc(b1-2)Man(a1-6)]Man(b1-4)GlcNAc(b1-4)GlcNAc
# Outline: as §1
# [11] = molecular target: Gal(b1-3)GlcNAc(b1-2)[Gal(b1-3)GlcNAc(b1-6)]Man(a1-6)[Gal(b1-3)GlcNAc(b1-2)Man(a1-3)]Man(b1-4)GlcNAc(b1-4)GlcNAc
# Outline: as §1
# [12] = molecular target: Gal(b1-3)GlcNAc(b1-3)Gal(b1-3)GlcNAc
# Outline: as §1
# [13] = molecular target: Gal(b1-3)GlcNAc(b1-3)Gal(b1-4)Glc
# Outline: as §1
# [14] = molecular target: Gal(b1-3)GlcNAc(b1-3)Gal(b1-4)GlcNAc
# Outline: as §1
# [15] = molecular target: Gal(b1-3)GlcNAc(b1-3)Gal(b1-4)GlcNAc(b1-2)Man(a1-3)[Gal(b1-3)GlcNAc(b1-3)Gal(b1-4)GlcNAc(b1-2)Man(a1-6)]Man(b1-4)GlcNAc(b1-4)GlcNAc
# Outline: as §1
# [16] = molecular target: Gal(b1-3)GlcNAc(b1-3)Gal(b1-4)GlcNAc(b1-2)[Gal(b1-3)GlcNAc(b1-3)Gal(b1-4)GlcNAc(b1-6)]Man(a1-6)[Gal(b1-3)GlcNAc(b1-3)Gal(b1-4)GlcNAc(b1-2)Man(a1-3)]Man(b1-4)GlcNAc(b1-4)[Fuc(a1-6)]GlcNAc
# Outline: as §1
# [17] = molecular target: Gal(b1-3)GlcNAc(b1-3)Gal(b1-4)GlcNAc(b1-3)Gal(b1-4)GlcNAc(b1-2)[Gal(b1-3)GlcNAc(b1-3)Gal(b1-4)GlcNAc(b1-3)Gal(b1-4)GlcNAc(b1-6)]Man(a1-6)[Gal(b1-3)GlcNAc(b1-3)Gal(b1-4)GlcNAc(b1-3)Gal(b1-4)GlcNAc(b1-2)Man(a1-3)]Man(b1-4)GlcNAc(b1-4)[Fuc(a1-6)]GlcNAc
# Outline: as §1
# [18] = molecular target: Gal(b1-3)GlcNAc(b1-3)Gal(b1-4)GlcNAc(b1-6)[Gal(b1-3)GlcNAc(b1-3)]Gal(b1-4)Glc
# Outline: as §1
# [19] = molecular target: Gal(b1-3)GlcNAc(b1-3)Gal(b1-4)[Fuc(a1-3)]GlcNAc
# Outline: as §1
# [20] = molecular target: Gal(b1-3)GlcNAc(b1-3)Gal(b1-4)[Fuc(a1-3)]GlcNAc(b1-6)[Gal(b1-3)GlcNAc(b1-3)]Gal(b1-4)Glc
# Outline: as §1
# [21] = molecular target: Gal(b1-3)GlcNAc(b1-3)GalNAc
# Outline: as §1
# [22] = molecular target: Gal(b1-3)GlcNAc(b1-6)Gal(b1-4)GlcNAc
# Outline: as §1
# [23] = molecular target: Gal(b1-3)GlcNAc(b1-6)GalNAc
# Outline: as §1
# [24] = molecular target: Gal(b1-3)GlcNAc(b1-6)[Gal(b1-3)]GalNAc
# Outline: as §1
# [25] = molecular target: Gal(b1-3)GlcNAc6S
# Outline: as §1
# [26] = molecular target: Gal(b1-3)[Fuc(a1-4)]GlcNAc
# Outline: as §1
# [27] = molecular target: Gal(b1-3)[Fuc(a1-4)]GlcNAc(b1-2)Man
# Outline: as §1
# [28] = molecular target: Gal(b1-3)[Fuc(a1-4)]GlcNAc(b1-2)Man(a1-3)[Gal(b1-3)[Fuc(a1-4)]GlcNAc(b1-2)Man(a1-6)]Man(b1-4)GlcNAc(b1-4)GlcNAc
# Outline: as §1
# [29] = molecular target: Gal(b1-3)[Fuc(a1-4)]GlcNAc(b1-2)Man(a1-3)[Gal(b1-3)[Fuc(a1-4)]GlcNAc(b1-2)Man(a1-6)]Man(b1-4)GlcNAc(b1-4)[Fuc(a1-6)]GlcNAc
# Outline: as §1
# [30] = molecular target: Gal(b1-3)[Fuc(a1-4)]GlcNAc(b1-3)Gal(b1-3)[Fuc(a1-4)]GlcNAc
# Outline: as §1
# [31] = molecular target: Gal(b1-3)[Fuc(a1-4)]GlcNAc(b1-3)Gal(b1-4)GlcNAc
# Outline: as §1
# [32] = molecular target: Gal(b1-3)[Fuc(a1-4)]GlcNAc(b1-3)Gal(b1-4)[Fuc(a1-3)]GlcNAc
# Outline: as §1
# [33] = molecular target: Gal(b1-3)[Fuc(a1-4)]GlcNAc(b1-6)GalNAc
# Outline: as §1
# [34] = molecular target: Gal(b1-3)[GlcNAc(b1-6)]GalNAc
# Outline: as §1
# [35] = molecular target: Gal(b1-3)[Neu5Ac(a2-6)]GalNAc
# Outline: as §1
# [36] = molecular target: Gal(b1-3)[Neu5Ac(a2-6)]GlcNAc(b1-4)Gal(b1-4)Glc
# Outline: as §1
# [37] = molecular target: Gal(b1-3)[Neu5Ac(a2-6)]GlcNAc(b1-6)Gal(b1-4)Glc
# Outline: as §1
binder,measurement,setting,value
"Flo1 (Saccharomyces cerevisiae), P32768 (protein) SGATEACLPAGQRKSGMNINFYQYSLKDSSTYSNAAYMAYGYASKTKLGSVGGQTDISIDYNIPCVSSSGTFPCPQEDSYGNWGCKGMGACSNSQGIAYWSTDLFGFYTTPTNVTLEMTGYFLPPQTGSYTFKFATVDDSAILSVGGATAFNCCAQQQPPITSTNFTIDGIKPWGGSLPPNIEGTVYMYAGYYYPMKVVYSNAVSWGTLPISVTLPDGTTVSDDFEGYVYSFDDDLSQSNCTVPDPSNY",glycan array binding signal (z-score),[1],-0.031
same,glycan array binding signal (z-score),[2],-0.62
same,glycan array binding signal (z-score),[3],-0.575
same,glycan array binding signal (z-score),[4],-0.291
same,glycan array binding signal (z-score),[5],0.411
same,glycan array binding signal (z-score),[6],-0.648
same,glycan array binding signal (z-score),[7],0.212
same,glycan array binding signal (z-score),[8],0.687
same,glycan array binding signal (z-score),[9],0.542
same,glycan array binding signal (z-score),[10],1.05
same,glycan array binding signal (z-score),[11],0.772
same,glycan array binding signal (z-score),[12],-0.33
same,glycan array binding signal (z-score),[13],-0.335
same,glycan array binding signal (z-score),[14],-1.03
same,glycan array binding signal (z-score),[15],-0.091
same,glycan array binding signal (z-score),[16],-0.035
same,glycan array binding signal (z-score),[17],2.69
same,glycan array binding signal (z-score),[18],-0.31
same,glycan array binding signal (z-score),[19],-0.364
same,glycan array binding signal (z-score),[20],-0.327
same,glycan array binding signal (z-score),[21],0.674
same,glycan array binding signal (z-score),[22],-0.495
same,glycan array binding signal (z-score),[23],-0.324
same,glycan array binding signal (z-score),[24],-0.013
same,glycan array binding signal (z-score),[25],-0.223
same,glycan array binding signal (z-score),[26],0.064
same,glycan array binding signal (z-score),[27],2.33
same,glycan array binding signal (z-score),[28],1.95
same,glycan array binding signal (z-score),[29],1.2
same,glycan array binding signal (z-score),[30],0.691
same,glycan array binding signal (z-score),[31],-0.689
same,glycan array binding signal (z-score),[32],-0.075
same,glycan array binding signal (z-score),[33],0.217
same,glycan array binding signal (z-score),[34],-0.101
same,glycan array binding signal (z-score),[35],0.048
same,glycan array binding signal (z-score),[36],-0.217
same,glycan array binding signal (z-score),[37],0.543

# Quoted at random: two records from the list
binder,measurement,setting,value
"Flo1 (Saccharomyces cerevisiae), P32768 (protein) SGATEACLPAGQRKSGMNINFYQYSLKDSSTYSNAAYMAYGYASKTKLGSVGGQTDISIDYNIPCVSSSGTFPCPQEDSYGNWGCKGMGACSNSQGIAYWSTDLFGFYTTPTNVTLEMTGYFLPPQTGSYTFKFATVDDSAILSVGGATAFNCCAQQQPPITSTNFTIDGIKPWGGSLPPNIEGTVYMYAGYYYPMKVVYSNAVSWGTLPISVTLPDGTTVSDDFEGYVYSFDDDLSQSNCTVPDPSNY",glycan array binding signal (z-score),[29],1.2
same,glycan array binding signal (z-score),[31],-0.689
